Source: paper PMC3257281
These are yes or no findings as the source states them, for the method shown.

Columns and labels:
[1] = target: GbpA_(D1–3), GbpA domains 1 to 3 (residues 24-414) (V. cholerae) (UniProt Q9KLD5); assay: SAXS; both purified
[2] = target: GbpAfl, mature full-length GlcNAc binding protein A (residues 24-485) (V. cholerae) (UniProt Q9KLD5); assay: SAXS; both purified

## GbpA_(D1–3), GbpA domains 1 to 3 (residues 24-414) (from UniProt Q9KLD5 24-414) (domain or fragment)
[1]
  binding: no binding

## GbpAfl, mature full-length GlcNAc binding protein A (residues 24-485) (from UniProt Q9KLD5 24-485)
[2]
  binding: no binding
